Measured values taken from paper PMC7198521.
These are yes or no findings as the source states them, for the method shown. For part of these data: Binding seen in cells or lysates may run through a third protein. Some entries that bind do so weakly or less than the wild type. For part of these data: Sequences can lack the tags named with a protein.

Sequences of proteins named here, by UniProt entry; tags and fusion partners are left off.
UniProt Q9UPS8: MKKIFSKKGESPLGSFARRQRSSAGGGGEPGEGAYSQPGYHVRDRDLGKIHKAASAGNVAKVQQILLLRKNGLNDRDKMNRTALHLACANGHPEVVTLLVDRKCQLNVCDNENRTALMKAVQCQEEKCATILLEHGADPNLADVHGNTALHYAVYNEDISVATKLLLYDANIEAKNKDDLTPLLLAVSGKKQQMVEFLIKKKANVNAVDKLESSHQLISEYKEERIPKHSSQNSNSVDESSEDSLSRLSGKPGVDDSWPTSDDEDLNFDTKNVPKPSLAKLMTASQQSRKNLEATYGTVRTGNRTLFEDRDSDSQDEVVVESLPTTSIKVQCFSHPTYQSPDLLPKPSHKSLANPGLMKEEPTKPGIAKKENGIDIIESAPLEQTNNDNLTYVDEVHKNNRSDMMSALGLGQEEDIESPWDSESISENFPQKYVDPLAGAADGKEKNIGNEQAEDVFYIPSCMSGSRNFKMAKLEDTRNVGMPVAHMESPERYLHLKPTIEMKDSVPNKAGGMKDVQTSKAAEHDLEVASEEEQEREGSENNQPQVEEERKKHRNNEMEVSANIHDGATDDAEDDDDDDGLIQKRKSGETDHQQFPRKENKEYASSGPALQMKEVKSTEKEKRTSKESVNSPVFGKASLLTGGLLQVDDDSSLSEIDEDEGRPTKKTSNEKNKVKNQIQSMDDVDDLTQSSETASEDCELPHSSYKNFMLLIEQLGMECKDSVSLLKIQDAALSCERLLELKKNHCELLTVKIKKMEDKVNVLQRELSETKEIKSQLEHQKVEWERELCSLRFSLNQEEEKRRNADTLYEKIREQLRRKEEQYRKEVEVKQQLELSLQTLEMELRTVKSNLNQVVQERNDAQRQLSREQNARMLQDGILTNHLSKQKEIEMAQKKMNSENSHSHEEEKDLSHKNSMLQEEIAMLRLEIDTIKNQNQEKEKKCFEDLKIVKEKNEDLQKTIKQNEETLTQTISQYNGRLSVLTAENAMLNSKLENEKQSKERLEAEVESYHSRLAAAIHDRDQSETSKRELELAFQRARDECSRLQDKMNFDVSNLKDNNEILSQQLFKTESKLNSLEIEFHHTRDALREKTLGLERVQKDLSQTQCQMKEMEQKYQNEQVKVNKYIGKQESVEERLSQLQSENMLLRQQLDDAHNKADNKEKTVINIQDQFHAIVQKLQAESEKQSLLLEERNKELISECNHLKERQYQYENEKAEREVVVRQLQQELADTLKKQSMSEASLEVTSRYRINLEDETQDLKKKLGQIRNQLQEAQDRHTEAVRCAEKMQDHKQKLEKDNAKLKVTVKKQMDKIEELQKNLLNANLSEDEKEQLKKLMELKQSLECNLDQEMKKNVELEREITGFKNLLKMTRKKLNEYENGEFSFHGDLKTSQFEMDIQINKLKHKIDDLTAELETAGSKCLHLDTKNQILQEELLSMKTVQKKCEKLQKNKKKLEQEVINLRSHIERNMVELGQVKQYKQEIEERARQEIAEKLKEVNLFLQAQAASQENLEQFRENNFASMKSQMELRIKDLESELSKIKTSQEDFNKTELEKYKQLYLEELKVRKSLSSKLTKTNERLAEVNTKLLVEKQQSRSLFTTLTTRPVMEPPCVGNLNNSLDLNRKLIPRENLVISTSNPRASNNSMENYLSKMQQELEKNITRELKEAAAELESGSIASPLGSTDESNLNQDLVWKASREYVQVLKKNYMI
UniProt Q9BVV6: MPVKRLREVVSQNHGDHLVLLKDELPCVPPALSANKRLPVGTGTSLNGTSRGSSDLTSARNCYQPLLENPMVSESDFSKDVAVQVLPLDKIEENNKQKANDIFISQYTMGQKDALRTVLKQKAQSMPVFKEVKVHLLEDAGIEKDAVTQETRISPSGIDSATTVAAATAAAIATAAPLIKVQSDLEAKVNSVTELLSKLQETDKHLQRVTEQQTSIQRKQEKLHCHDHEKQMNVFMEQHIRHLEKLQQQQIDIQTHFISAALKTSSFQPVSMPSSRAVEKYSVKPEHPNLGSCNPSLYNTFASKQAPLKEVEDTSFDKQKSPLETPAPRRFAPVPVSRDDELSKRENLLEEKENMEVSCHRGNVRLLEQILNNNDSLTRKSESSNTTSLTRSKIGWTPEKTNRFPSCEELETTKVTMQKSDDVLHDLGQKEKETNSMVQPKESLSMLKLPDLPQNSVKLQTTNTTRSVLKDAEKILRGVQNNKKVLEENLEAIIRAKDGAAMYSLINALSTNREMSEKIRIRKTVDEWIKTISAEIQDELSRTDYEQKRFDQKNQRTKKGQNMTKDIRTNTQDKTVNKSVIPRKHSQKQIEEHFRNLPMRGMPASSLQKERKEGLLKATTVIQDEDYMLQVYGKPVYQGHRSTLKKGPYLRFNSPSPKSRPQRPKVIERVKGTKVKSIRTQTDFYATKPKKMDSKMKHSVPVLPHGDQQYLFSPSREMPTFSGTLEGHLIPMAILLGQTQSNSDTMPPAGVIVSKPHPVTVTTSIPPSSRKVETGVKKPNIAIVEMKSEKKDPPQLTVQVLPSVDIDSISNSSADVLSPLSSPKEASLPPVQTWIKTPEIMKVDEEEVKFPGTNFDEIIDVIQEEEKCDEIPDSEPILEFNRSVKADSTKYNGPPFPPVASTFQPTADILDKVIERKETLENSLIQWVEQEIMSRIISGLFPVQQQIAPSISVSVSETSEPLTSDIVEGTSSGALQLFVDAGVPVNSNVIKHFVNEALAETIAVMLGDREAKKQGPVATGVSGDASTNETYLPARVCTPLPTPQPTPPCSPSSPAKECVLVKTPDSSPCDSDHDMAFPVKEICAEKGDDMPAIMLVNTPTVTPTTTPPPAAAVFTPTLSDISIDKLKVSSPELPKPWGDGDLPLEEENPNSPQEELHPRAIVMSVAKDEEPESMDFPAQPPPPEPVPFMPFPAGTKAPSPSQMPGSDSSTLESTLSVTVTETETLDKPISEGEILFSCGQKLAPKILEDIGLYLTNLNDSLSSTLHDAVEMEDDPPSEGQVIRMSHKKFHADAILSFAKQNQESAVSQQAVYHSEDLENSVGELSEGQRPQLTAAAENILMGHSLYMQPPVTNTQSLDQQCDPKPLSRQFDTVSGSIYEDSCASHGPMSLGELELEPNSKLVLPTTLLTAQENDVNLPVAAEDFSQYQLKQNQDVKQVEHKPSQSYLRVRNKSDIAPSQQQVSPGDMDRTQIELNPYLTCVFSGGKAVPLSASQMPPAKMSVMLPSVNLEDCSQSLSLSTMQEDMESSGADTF

Assays:
[1] = molecular target: T1, FBF1 (co-immunoprecipitation) (human (endogenous in HEK293T)) (UniProt Q8TES7); assay: co-IP; lysates of HEK293T cells in IP buffer (20 mM Hepes-KOH pH 7.2, 10 mM KCl, 1.5 mM MgCl2, 1 mM EDTA, 1 mM EGTA, 150 mM NaCl, 0.5% NP-40); called endogenous in the results
T1 sequence: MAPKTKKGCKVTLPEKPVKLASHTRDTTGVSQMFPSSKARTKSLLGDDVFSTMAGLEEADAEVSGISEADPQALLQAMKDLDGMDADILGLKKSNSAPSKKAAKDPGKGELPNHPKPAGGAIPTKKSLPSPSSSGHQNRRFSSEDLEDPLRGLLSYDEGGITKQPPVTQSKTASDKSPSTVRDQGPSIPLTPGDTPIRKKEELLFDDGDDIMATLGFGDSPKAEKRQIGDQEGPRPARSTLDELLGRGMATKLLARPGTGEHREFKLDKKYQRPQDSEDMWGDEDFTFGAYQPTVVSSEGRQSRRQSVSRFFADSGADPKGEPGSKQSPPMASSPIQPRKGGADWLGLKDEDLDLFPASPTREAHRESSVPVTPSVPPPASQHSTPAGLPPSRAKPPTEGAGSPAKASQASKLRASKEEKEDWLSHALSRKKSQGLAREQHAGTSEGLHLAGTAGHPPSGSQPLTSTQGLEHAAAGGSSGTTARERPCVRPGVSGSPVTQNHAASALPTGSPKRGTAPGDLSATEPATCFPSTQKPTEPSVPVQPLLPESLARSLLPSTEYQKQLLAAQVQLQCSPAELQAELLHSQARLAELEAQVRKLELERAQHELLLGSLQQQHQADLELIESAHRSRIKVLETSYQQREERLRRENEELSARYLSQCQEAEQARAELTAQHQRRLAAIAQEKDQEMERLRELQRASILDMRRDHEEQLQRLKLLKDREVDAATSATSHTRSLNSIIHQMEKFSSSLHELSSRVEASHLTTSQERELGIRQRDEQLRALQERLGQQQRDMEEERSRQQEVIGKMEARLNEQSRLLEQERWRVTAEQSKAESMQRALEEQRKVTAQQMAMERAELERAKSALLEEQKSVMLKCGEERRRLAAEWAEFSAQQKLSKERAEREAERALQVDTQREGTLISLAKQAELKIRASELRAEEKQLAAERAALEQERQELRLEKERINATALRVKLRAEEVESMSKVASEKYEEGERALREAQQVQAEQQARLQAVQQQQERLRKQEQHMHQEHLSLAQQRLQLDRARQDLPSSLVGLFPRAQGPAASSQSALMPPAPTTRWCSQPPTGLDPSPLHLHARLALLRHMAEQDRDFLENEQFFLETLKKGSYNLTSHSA

[2] = molecular target: T2, FBF1 (recombinant, GST pull-down) (human) (UniProt Q8TES7); assay: pull-down; purified GST fusion protein immobilised on glutathione Sepharose beads, incubated with His fusion protein 4 h at 4 °C; 50 mM Tris-HCl pH 7.4, 150 mM NaCl, 1% Triton X-100, 1 mM dithiothreitol, 10% glycerol; western blot with anti-His antibody; both purified
T2 sequence: T1 sequence

[3] = molecular target: ANKRD26 (co-immunoprecipitation) (human (endogenous in HEK293T)) (UniProt Q9UPS8); assay: co-IP; lysates of HEK293T cells in IP buffer (20 mM Hepes-KOH pH 7.2, 10 mM KCl, 1.5 mM MgCl2, 1 mM EDTA, 1 mM EGTA, 150 mM NaCl, 0.5% NP-40); called endogenous in the results
[4] = molecular target: ANKRD26 (recombinant, GST pull-down) (human) (UniProt Q9UPS8); assay: pull-down; purified GST fusion protein immobilised on glutathione Sepharose beads, incubated with His fusion protein 4 h at 4 °C; 50 mM Tris-HCl pH 7.4, 150 mM NaCl, 1% Triton X-100, 1 mM dithiothreitol, 10% glycerol; western blot with anti-His antibody; both purified

Substance	binding [1]	binding [2]	binding [3]	binding [4]
ANKRD26 (co-immunoprecipitation) (from UniProt Q9UPS8 1-1710)	binds			
ANKRD26 (recombinant, GST pull-down) (from UniProt Q9UPS8 1-1710)		binds		
TALPID3 (co-immunoprecipitation) (from UniProt Q9BVV6 1-1533)	binds		binds	
TALPID3 (recombinant, GST pull-down) (from UniProt Q9BVV6 1-1533)		binds		binds
